Experimental data: paper PMC7482822
These are yes or no findings as the source states them, for the method shown. Binding seen in cells or lysates may run through a third protein. Some entries that bind do so weakly or less than the wild type.

Columns and labels:
[1] = target: T1, ASC, adaptor of the NLRP3 inflammasome (mouse (endogenous in mpkCCD)) (UniProt Q9EPB4); assay: co-IP; as a1 (anti-ASC IP, protein A-sepharose, Western blot); mpkCCD cells treated with cholesterol and simvastatin
T1 sequence: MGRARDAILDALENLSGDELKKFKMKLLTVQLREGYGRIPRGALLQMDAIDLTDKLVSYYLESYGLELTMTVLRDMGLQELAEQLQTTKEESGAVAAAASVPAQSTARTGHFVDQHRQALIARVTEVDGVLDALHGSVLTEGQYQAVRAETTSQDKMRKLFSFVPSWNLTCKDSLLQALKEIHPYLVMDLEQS

[2] = target: T1, ASC, adaptor of the NLRP3 inflammasome (mouse (endogenous in mpkCCD)); assay: co-IP; IP with anti-ASC antibody (sc-514414, 1:10) in IP buffer overnight at 4 °C, protein A-sepharose beads for 12 h, Western blot; lysates of mpkCCD cells treated with cholesterol, with or without simvastatin

binding [1]: binds weakly
binding [2]: binds
B1: Caspase-1 (enzyme, UniProt P29452 1-402)
chain: MADKILRAKRKQFINSVSIGTINGLLDELLEKRVLNQEEMDKIKLANITAMDKARDLCDHVSKKGPQASQIFITYICNEDCYLAGILELQSAPSAETFVATEDSKGGHPSSSETKEEQNKEDGTFPGLTGTLKFCPLEKAQKLWKENPSEIYPIMNTTTRTRLALIICNTEFQHLSPRVGAQVDLREMKLLLEDLGYTVKVKENLTALEMVKEVKEFAACPEHKTSDSTFLVFMSHGIQEGICGTTYSNEVSDILKVDTIFQMMNTLKCPSLKDKPKVIIIQACRGEKQGVVLLKDSVRDSEEDFLTDAIFEDDGIKKAHIEKDFIAFCSSTPDNVSWRHPVRGSLFIESLIKHMKEYAWSCDLEDIFRKVRFSFEQPEFRLQMPTADRVTLTKRFYLFPGH
